Data from patent US10954200B1, “Anti-angiogenesis compound” (KING SAUD UNIVERSITY, priority 2019, dated 2021).

Experiments:
Type in all cases: cell-based, human
A549 cells [1] = assay: Trypan blue dye exclusion assay, A549; details: A549, 48 h; read-out: IC50 value (μM) against A549 cells, Trypan blue assay
Procedure: (§1) Breast cancer cells (MCF-7), lung cancer cells (A549), Hela cells, and peripheral blood mononuclear cells (PBMC) were purchased from the National Center for Cell Sciences (NCCS), Pune, India. The cancer cells were maintained in Dulbecco's modified eagles medium (DMEM), supplemented with 2 mM 1-glutamine and balanced salt solution (BSS), adjusted to contain 1.5 g/L Na2CO3, 0.1 mM nonessential amino acids, 1 mM sodium pyruvate, 2 mM 1-glutamine, 1.5 g/L glucose, 10 mM (4-(2-hydroxyethyl)-1-piperazineethane sulfonic acid) (HEPES), and 10% fetal bovine serum (GIBCO, USA). Penicillin and streptomycin (100 IU/100 μg) were adjusted to 1 mL/L. The cells were maintained at 37° C. with 5% CO2 in a humidified CO2 incubator.
(§2) The cytotoxic effects of synthesized compounds on various types of cancer cells were determined by trypan blue dye exclusion assay. The cultured cells were treated with the synthesized compounds and incubated for 48 h. After the incubation period, the cells were detached by 0.5% trypan-EDTA solution, harvested by centrifugation at 3000 rpm for 5 minutes and diluted in 1 ml of PBS. […] About 20 μl of cell suspensions were carefully and continuously filled in the haemocytometer chamber and viable cells were counted in 1×1 mm squares, four chambers and the average number of cells per square determined. Total viable cells were determined using the following formula, […]

Hela cells [2] = assay: MTT cell viability assay, Hela; details: 48 h, read-out: IC50 value (μM) against Hela cells, MTT assay
Procedure: as §1
(§3) The inhibitory concentration (IC50) value was evaluated using an MTT [3-(4,5-dimethylthiazol-2-yl)-2,5-diphenyltetrazolium bromide] assay. Cancer cells were grown (1×10^4 cells/well) in a 96-well plate for 48 h to 75% confluence. The medium was replaced with fresh medium containing serially diluted synthesized compounds, and the cells were further incubated for 48 h. The culture medium was removed, and 100 μL of the MTT [3-(4,5-dimethylthiozol-2-yl)-3,5-diphenyl tetrazolium bromide] (Hi-Media, Mumbai, India) solution was added to each well and incubated at 37° C. for 4 h. […] The optical density was measured at 620 nm in an ELISA multiwell plate reader (Thermo Multiskan EX, USA). […]

A549 cells [3] = assay: MTT cell viability assay, A549; details: A549, 48 h; read-out: IC50 value (μM) against A549 cells, MTT assay
Procedure: as §1, §3

MCF-7 cells [4] = assay: Trypan blue dye exclusion assay, MCF-7; details: MCF-7, 48 h; read-out: IC50 value (μM) against MCF-7 cells, Trypan blue assay
Procedure: as §1, §2

Hela cells [5] = assay: Trypan blue dye exclusion assay, Hela; details: 48 h, read-out: IC50 value (μM) against Hela cells, Trypan blue assay
Procedure: as §1, §2

MCF-7 cells [6] = assay: MTT cell viability assay, MCF-7; details: MCF-7, 48 h; read-out: IC50 value (μM) against MCF-7 cells, MTT assay
Procedure: as §1, §3

**Q.** Which IC50 (A549 cells [1]) does the source give for `N.N.[Cl][Pt][Cl]` [Cisplatin, reference compound] here?
**A.** Its IC50 is 6.4 ± 1.8 µM.

**Q.** What about the IC50 (Hela cells [2]) of the same molecule?
**A.** Its IC50 is 5.9 ± 1 µM.

**Q.** What about the IC50 (A549 cells [3]) of the same molecule?
**A.** The IC50 was 6.5 ± 0.5 µM.

**Q.** What about the IC50 (MCF-7 cells [4]) of the same molecule?
**A.** Its IC50 is 6.7 ± 0.5 µM.

**Q.** And the IC50 (Hela cells [5])?
**A.** Its IC50 is 6.6 ± 0.2 µM.

**Q.** What about the IC50 (MCF-7 cells [6]) of the same molecule?
**A.** Its IC50 is 5.9 ± 0.5 µM.
